Molecules are shown by their SMILES. Where “and” joins values, the source holds several entries; their conditions need not be identical. Equal values may be shown once. This is one part of the list. Repeats are few or missing, and single values can be far off.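 The cells are hepatocyte-like cells grown from human stem cells in which the DGUOK gene was disrupted by CRISPR, a model of liver mtDNA depletion syndrome. Each well's ATP signal was scored against the other wells on its plate, and a drug counted as a primary hit when its score was 3 or higher.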

The test concerns DGUOK Δ14/Δ5 iPSC-derived hepatocyte-like cells (SV20). As to the kind of experiment: ATP level (CellTiter-Glo luminescence) Z score relative to plate distribution, under 2-DG glycolysis block; higher = more cellular ATP (rescue of mitochondrial ATP production). The following applies: 5 µM; treatment time: day 15 to day 20 of differentiation (5 days); 2-deoxy-D-glucose: 20 mM for 24 h before assay.
`COc1cc(C(=O)N2CCOCC2)cc(OC)c1OC`: the ATP level is inactive: 2.5.

Turning to `COc1cc(O)c(C(C)=O)c(OC)c1`, the ATP level was inactive: 0.119.

On to `CN(C)CCCOc1nn(Cc2ccccc2)c2ccccc12`, for which the ATP level is inactive: -11.5.

For `CC(C)(O)CC[C@@H](O)[C@](C)(O)[C@H]1CC[C@@]2(O)C3=CC(=O)[C@@H]4C[C@@H](O)[C@@H](O)C[C@]4(C)[C@H]3CC[C@]12C`, the ATP level was inactive: 2.18.

Consider `Nc1ccc(S(=O)(=O)Nc2ccc(Cl)nn2)cc1`, for which the ATP level was inactive: -0.177.

`COC1=C(O)C(=O)c2c(cc3oc(C(C)=O)c(O)c3c2O)C1=O`: the ATP level is active: 3.01.

`Oc1ccc(O)cc1`: the ATP level was inactive: -0.027.

Turning to `CC1(O)CCOC(=O)C1` (stereo not given), the ATP level was inactive: 2.27.

Regarding `CC1CCC(NC(=O)N(CCCl)N=O)CC1` (stereo not given), the ATP level was inactive: -0.866.

Turning to `CC1=C2C(O)C(=O)OC3CC4C(C)(C)C(=O)C=C[C@]4(C)C(CC1)[C@]23C` (stereo not given in full), the ATP level is inactive: 2.36.

In the case of `CC(=O)OCC(=O)[C@@]1(O)[C@@H](C)C[C@H]2[C@@H]3CCC4=CC(=O)C=C[C@]4(C)[C@@]3(F)[C@@H](O)C[C@@]21C`, the ATP level is inactive: 1.81.

Regarding `CC(=O)Oc1ccc2c(c1OC(C)=O)OCC1(O)Cc3c(cc(OC(C)=O)c(OC(C)=O)c3OC(C)=O)C21` (stereo not given), the ATP level is inactive: 0.64.

For `C[C@@H]1C[C@H]2[C@@H]3C[C@H](F)C4=CC(=O)C=C[C@]4(C)[C@@]3(F)[C@@H](O)C[C@]2(C)[C@@]1(O)C(=O)CO`, the ATP level was active: 3.39.

Consider `O=C(NC[C@H]1CN(c2ccc(N3CCOCC3=O)cc2)C(=O)O1)c1ccc(Cl)s1`, for which the ATP level is inactive: -3.24.

As for `O=C(O)Cc1ccc(-c2ccccc2)cc1`, the ATP level is inactive: 2.02.

With `O=C(O)c1cn(-c2ccc(F)cc2)c2cc(N3CCNCC3)c(F)cc2c1=O`, the ATP level is inactive: 0.15.

As for `CC[C@H](/C=C/[C@@H](C)[C@H]1CC[C@H]2[C@@H]3CC=C4C[C@@H](O)CC[C@]4(C)[C@H]3CC[C@]12C)C(C)C`, the ATP level was inactive: 1.72.

As to `CCCCCCCCCCCCCCCCCCOCC(O)CO` (stereo not given), the ATP level was inactive: 1.76.

Consider `C[N+]1(C)CCC(OC(=O)C(O)(c2ccccc2)C2CCCC2)C1` (stereo not given), for which the ATP level is inactive: 1.67.

For `CC(=O)ON(CCN(OC(C)=O)OC(C)=O)OC(C)=O`, the ATP level is inactive: 1.63.

As for `CC1c2cccc(O)c2C(O)=C2C(=O)C3(O)C(O)=C(C(N)=O)C(=O)C(N(C)C)C3C(O)C21` (stereo not given), the ATP level is inactive: -4.13.

For `CCCCCc1c2c(cc(O)c1C(=O)O)OC(=O)c1c(cc(OC)cc1C(=O)CCCC)O2`, the ATP level was inactive: 0.851.

Take `Clc1ccc(CCC(Cn2ccnc2)Sc2c(Cl)cccc2Cl)cc1` (stereo not given): the ATP level was inactive: 2.65.

In the case of `N#Cc1ccc(C(c2ccc(C#N)cc2)n2cncn2)cc1`, the ATP level was inactive: 0.942.

Take `COC1=C[C@@H](C)[C@@H]2C[C@H]3OC(=O)C[C@H]4C(C)=C(OC)C(=O)[C@H]([C@@]2(C)C1=O)[C@@]34C`: the ATP level is inactive: -1.87.

Consider `NCc1ccccc1CC(=O)N[C@@H]1C(=O)N2C(C(=O)O)=C(CSc3nnnn3CC(=O)O)CS[C@H]12`, for which the ATP level was inactive: 0.487.

On to `N=C(NCCCCCCNC(=N)NC(=N)Nc1ccc(Cl)cc1)NC(=N)Nc1ccc(Cl)cc1`, for which the ATP level is inactive: -14.7.

As to `CN1CCN(C2=Nc3ccccc3Oc3ccc(Cl)cc32)CC1`, the ATP level is inactive: -2.31.

Consider `CC(C)CC(N)=O`, for which the ATP level is inactive: 1.72.

As to `Oc1ccc2ccccc2c1` [beta-NAPHTHOL], the ATP level is inactive: -0.207.

In the case of `CC(=O)Oc1ccccc1C(=O)Nc1ncc([N+](=O)[O-])s1`, the ATP level was inactive: -4.14.

With `Cc1[nH]ccc2c1[nH]c1cc(=O)ccc12`, the ATP level is inactive: -0.00231 and inactive: -3.13.

Turning to `CCN(CC)CCOC(=O)C1(C2CCCCC2)CCCCC1`, the ATP level was inactive: -0.403.

Turning to `CCCCOCCOCCOCc1cc2c(cc1CCC)OCO2`, the ATP level was inactive: -1.49.

As to `O=c1cc(-c2ccccc2)oc2c(O)c(O)ccc12`, the ATP level is inactive: -1.62.

`CCCCC(O)c1ccccc1` (stereo not given): the ATP level was active: 3.53.

As to `CC(N/C(=N\C#N)Nc1ccncc1)C(C)(C)C` (stereo not given), the ATP level was inactive: 0.573.

`CC1(C)OC(=O)C(OCC2CC2)=C1c1ccc(S(C)(=O)=O)cc1`: the ATP level was inactive: 0.365.

On to `CC1=C(CCC(=O)O)c2cc3nc(cc4[nH]c(cc5[nH]c(cc1n2)c(C)c5C(C)O)c(C)c4C(C)O)C(C)=C3CCC(=O)O` (stereo not given), for which the ATP level was inactive: -5.09.

As to `COc1ccc([C@@H]2CC(=O)c3c(O)cc(O)cc3O2)cc1O`, the ATP level was inactive: 0.262.

Regarding `COc1cc(C(=O)OCCCN2CCCN(CCCOC(=O)c3cc(OC)c(OC)c(OC)c3)CC2)cc(OC)c1OC`, the ATP level is inactive: -2.38.

Regarding `CC[N+](C)(CC)CCOC(=O)C(O)(c1ccccc1)C1CCCCC1` (stereo not given), the ATP level is inactive: -0.839.

For the compound `CO[C@H]1C[C@H](O[C@H]2[C@H](C)O[C@@H](O[C@@H]3/C(C)=C/C[C@@H]4C[C@@H](C[C@]5(C=C[C@H](C)[C@@H](C6CCCCC6)O5)O4)OC(=O)[C@@H]4C=C(C)[C@@H](O)[C@H]5OC/C(=C\C=C\[C@@H]3C)[C@]54O)C[C@@H]2OC)O[C@@H](C)[C@@H]1O`, the ATP level is inactive: -4.9.

On to `CCCCCCCCCCCCCCCC(=O)OCC(O)CO` (stereo not given), for which the ATP level is inactive: 0.712.

As to `O=S(=O)(O)c1cc(N=C=S)ccc1/C=C/c1ccc(N=C=S)cc1S(=O)(=O)O`, the ATP level is inactive: -0.556.

In the case of `NCCc1c[nH]cn1`, the ATP level was inactive: 1.54.

As for `CCCOc1cc(N)ccc1C(=O)OCCN(CC)CC`, the ATP level is inactive: -0.074.

Turning to `OC(Cn1cncn1)(Cn1cncn1)c1ccc(F)cc1F`, the ATP level is inactive: 0.0748.

As for `Nc1[nH]cnc2ncnc1-2`, the ATP level is inactive: 1.71.

For `CC(=O)[C@@]1(O)CC[C@H]2[C@@H]3C=C(Cl)C4=CC(=O)[C@@H]5C[C@@H]5[C@]4(C)[C@H]3CC[C@@]21C`, the ATP level was inactive: -1.59.

In the case of `CC[N+](C)(C)c1cccc(O)c1`, the ATP level is inactive: -0.607.

`CC(C)CCC[C@@H](C)[C@H]1CC[C@H]2[C@@H]3CC=C4C[C@@H](OC(=O)CCC(=O)O)CC[C@]4(C)[C@H]3CC[C@]12C`: the ATP level is inactive: -1.3.

With `COc1c(-c2coc3cc4c(cc3c2=O)CC(O)C(C)(C)O4)ccc2c1C=CC(C)(C)O2` (stereo not given), the ATP level was inactive: -10.8.

In the case of `Cc1cn[nH]c1`, the ATP level is inactive: 0.513 and inactive: 0.999.

As to `CC(=O)OCC(=O)[C@@]1(O)CC[C@H]2[C@@H]3CCC4=CC(=O)C=C[C@]4(C)[C@@]3(Cl)[C@@H](Cl)C[C@@]21C`, the ATP level was inactive: 0.477.

The values are drawn from the supplement of paper PMC6289059.
